## Results of single-concentration screens

Measurements from “University of Dundee, Small-Polar-MMV Screening Library” (2021), ChEMBL document CHEMBL3988442.

Values are the deposited “Percent Effect”, in %.
The record does not define 0% and 100%; most values in the screen are far below 50% and negative numbers occur (in some assays of this library far below -100).
This is an unselected part of the compounds tested.

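Whole-cell growth test on Mycobacterium tuberculosis, read after 3 days in glucose-containing 7H9 medium; the read-out is not stated. Concentration: 500 µM. Direction is inferred from retests: higher values go with more growth inhibition. About 18,000 compounds were tested under these conditions; 7.9% (about 1,400) showed 50% or more at least once.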

| # | compound | Percent Effect |
|---|---|---|
| 1 | `CC(C(=O)Nc1ccc(S(N)(=O)=O)cc1)N1CCCC1` (centres unmarked) | 12.19% |
| 2 | `Cc1c(Br)c(C(=O)N2CCN3CCCC3C2)nn1C` (centres unmarked) | 16.89% |
| 3 | `COc1cc(CN)cc(Cl)c1OC` | 7.281% |
| 4 | `COc1cccc(C(C)N2CCCN(C(N)=O)CC2)c1` (centres unmarked) | 1.837% |
| 5 | `Cc1nnc(SC[C@H](O)COCc2ccccc2)s1` | 71.97% |
| 6 | `CCc1noc(CSc2nc(C)cc(N)n2)n1` | 21.82% |
| 7 | `CNC(=O)Nc1ccc(N2CCOCC2)nc1` | -293.5% |
| 8 | `CN(C)c1ccc(C(=O)NCCC(O)C(F)(F)F)cc1` (centres unmarked) | 33.33% |
| 9 | `Cc1cc(C(=O)N2CCN[C@H](C)C2)n[nH]1` | 9.843% |
| 10 | `CN(Cc1cnccn1)C(=O)[C@H]1CCC[C@H](O)C1` | 4.867% |
| 11 | `Cn1cc(NC(=O)CC(C)(C)C)cn1` | 13.68% |
| 12 | `Cc1[nH]nc(C(=O)Nc2ccccc2)c1N` | 9.024% |
| 13 | `COc1cnccc1C(C)N` (centres unmarked) | -7.635% |
| 14 | `CCS(=O)(=O)c1ccc(CNc2ncccc2Cl)cc1` | 65.09% |
| 15 | `CC(C)[C@H](N)C(=O)N1CCC(Oc2cccnc2)C1` (some centres unmarked) | 49.78% |
| 16 | `CC(C)(C)OC(=O)N1CCOCC1C#N` (centres unmarked) | 4.335% |
| 17 | `O=C(C1CCCN1CC1CCNCC1)N1CCSCC1` (centres unmarked) | 2.216% |
| 18 | `CN1CCC(CN(C)Cc2cncs2)C1` (centres unmarked) | 7.771% |
| 19 | `Oc1ccccc1N1CCN(Cc2ccccn2)CC1` | 42.77% |
| 20 | `NCCNC(=O)c1nc(Cn2cc(Br)cn2)no1` | 23.41% |
| 21 | `CCN(C)C(=O)CN1CC(Oc2cccc(Cl)c2)C1` | -7.424% |
| 22 | `Cc1nc(O)cc(-c2nc3c([nH]2)CCCNC3=O)n1` | 10.03% |
| 23 | `CC(=O)Nc1nc2c(s1)CCCC2` | 14.12% |
| 24 | `CSc1ncc(C(=O)NCc2noc(C)n2)cn1` | 19.44% |
| 25 | `CS(=O)(=O)N1CCN(CCn2cncn2)CC1` | 13.82% |
| 26 | `O=C(Cn1cncn1)Nc1cccc(F)c1` | 16.17% |
| 27 | `Cc1cc(=O)oc(C)c1C(=O)N1CCCCC1` | 7.613% |
| 28 | `CC(C)(C)SCC(=O)NCC(C)(C)N1CC[S+]([O-])CC1` | 3.251% |
| 29 | `CC1c2cccn2CCN1CC(N)=O` (centres unmarked) | -21.53% |
| 30 | `c1cncc(CCNc2ccc3nnnn3n2)c1` | -2.752% |
| 31 | `NC(=O)N1CCC(C(=O)Nc2ccccn2)CC1` | 6.551% |
| 32 | `CCCN(CCO)CC(=O)NC(CC)CC` | 2.922% |
| 33 | `COc1ccc(CCC(=O)N(C)CC(N)=O)cc1Br` | 28.71% |
| 34 | `CN1CC(C(=O)NCCOC2CCCCC2)CC1=O` (centres unmarked) | 27.31% |
| 35 | `COC(=O)c1cccc(Cn2cnc(C#N)n2)c1` | 42.51% |
| 36 | `CCc1noc(C)c1C(=O)Nc1ccon1` | 21.63% |
| 37 | `CC1(C)CN(c2cncc(C(N)=O)n2)C[C@]1(C)O` | -1.252% |
| 38 | `Cn1cc(NC(=O)CCc2ccco2)c(=O)n(C)c1=O` | 1.422% |
| 39 | `O=C(CNc1ccc(Br)cc1)NCc1ncc[nH]1` | 60.07% |
| 40 | `O=C(NCC(CO)Cc1cccnc1)C1CCCC1` (centres unmarked) | 20.25% |
| 41 | `CCCNc1nc2c(c(=O)n(C)c(=O)n2C)n1CC` | 6.105% |
| 42 | `CNC(=O)[C@H]1CC[C@H](CNC(=O)c2cn[nH]c2)CC1` | -2.052% |
| 43 | `NC(=O)C(Sc1nncs1)c1ccc(Br)cc1` (centres unmarked) | 68.09% |
| 44 | `CC1(C)OC(=O)N(Cc2cc(=O)n3ccsc3n2)C1=O` | 0.09186% |
| 45 | `CCc1nsc(N2CCNCC2)n1` | 0.444% |
| 46 | `CN1CCC(Oc2ccc(CN)cc2)CC1` | 17.08% |
| 47 | `CCCn1nnnc1CN(C)C(C)(C)C(=O)OCC` | 19.79% |
| 48 | `CC(C)C(N)c1nnc[nH]1` (centres unmarked) | 2.081% |
| 49 | `CSCC(=O)N1CC(C(N)=O)Oc2ccccc21` (centres unmarked) | 5.93% |
| 50 | `NC(=O)Nc1cccc(C(=O)Nc2ccc(Cl)cn2)c1` | 79.93% |
| 51 | `Cc1cc(C(=O)N(C)S(C)(=O)=O)nn1-c1ccccc1` | 3.377% |
| 52 | `Cc1nn(C)c(N(C)C)c1CNCc1nncn1C` | 8.87% |
| 53 | `Cc1nc(-n2cccc2)sc1CO` | 18.98% |
| 54 | `NCC1(O)CCc2ccccc21` (centres unmarked) | 14.2% |
| 55 | `CN(C)C(=O)CCCSc1nnc(C(F)F)n1C` | 6.293% |
| 56 | `CN(C)CCNC(=O)c1cc2ccccc2o1` | 21.09% |
| 57 | `CCN1CCCC1CNC(=O)c1c[nH]nn1` (centres unmarked) | 2.808% |
| 58 | `O=C(Nc1nccs1)c1csnn1` | 4.084% |
| 59 | `CS(=O)(=O)N1CCCN(C(=O)c2cccc(Cl)c2)CC1` | 15.71% |
| 60 | `CCN1CCN(C(C)c2nc(C)no2)CC1` (centres unmarked) | 5.35% |
| 61 | `Cc1cnn(CC(C)NCCCS(N)(=O)=O)c1` (centres unmarked) | 2.127% |
| 62 | `CC1=CC(=O)N(C2CCCC2)C1=O` | -6.368% |
| 63 | `COC(=O)c1cc(Cn2cc(F)ccc2=O)oc1C` | -11.04% |
| 64 | `C[C@@H]1CN(c2nccc(N)n2)CC[C@]1(C)O` | 9.711% |
| 65 | `CC(C)NCC1CCC(=O)N1` (centres unmarked) | 7.681% |
| 66 | `CC(=O)NC(CC(=O)N1CCCC1)c1ccc(Cl)cc1` (centres unmarked) | 36.58% |
| 67 | `CC(C)OCCN1CCC(N)CC1` | 4.998% |
| 68 | `COc1csc(-c2cc(N)n(C)n2)c1` | 10.27% |
| 69 | `CC(O)c1cccc(OCCC2OCCO2)c1` (centres unmarked) | 34.24% |
| 70 | `O=C(C1CCCO1)N1CCOc2ccccc2C1` (centres unmarked) | 5.844% |
| 71 | `Cc1nccn1CCCN1CCCC(C2OCCO2)C1` (centres unmarked) | 2.653% |
| 72 | `Cc1ccc(C)c(S(N)(=O)=O)c1` | 18.97% |
| 73 | `O=C(Cn1cnc2sc3c(c2c1=O)CCC3)NC1CC1` | -4.539% |
| 74 | `COCCOCC(=O)NC(C)C(=O)N1CCSCC1` (centres unmarked) | -1.388% |
| 75 | `Cc1nscc1C(=O)OCCC(=O)NC(C)C` | 13.34% |
| 76 | `COCC(N)c1ccccc1` (centres unmarked) | 9.594% |
| 77 | `CCN(C)CC1CCN(S(=O)(=O)c2cccnc2)C1` (centres unmarked) | -1.103% |
| 78 | `c1coc(C2COCCN2)c1` (centres unmarked) | 0.02743% |
| 79 | `Cc1cc(C(N)=O)n[nH]1` | 7.903% |
| 80 | `C[C@@H](N)C(=O)OC(C)(C)C` | 5.683% |
| 81 | `NC(=O)CC(N)C1CCCCC1` (centres unmarked) | 6.725% |
| 82 | `COC(=O)CNS(=O)(=O)c1ccc(C)cc1` | 27.17% |
| 83 | `O=C(NCCSc1ccccn1)C1CCCCO1` (centres unmarked) | 55.5% |
| 84 | `c1ccc2c(CC3COCCN3)c[nH]c2c1` (centres unmarked) | 11.14% |
| 85 | `Nc1cnnn1-c1ccccc1` | -2.951% |
| 86 | `Cc1ccc(-n2nnc(C(N)=O)c2C)cc1` | -5.351% |
| 87 | `CS(=O)(=O)c1ccc(NC(=O)Cn2ccnc2)cc1` | 10.91% |
| 88 | `COCC(=O)Nc1cccc(CN2CCCC2)c1` | 21.06% |
| 89 | `CN(C)CC(=O)N1CCCC1C(C)(C)O` (centres unmarked) | 6.712% |
| 90 | `Cc1c(Br)cccc1C(=O)N(C)CCNS(C)(=O)=O` | 22.5% |
| 91 | `CCn1nnnc1SC(C)C(=O)Nc1ccc(F)cc1` (centres unmarked) | -3.52% |
| 92 | `NC(=O)Cc1n[nH]c(-c2cccnc2)n1` | 2.451% |
| 93 | `NCC1Cc2ccccc21` (centres unmarked) | 72.52% |
| 94 | `Cc1ccc(C(=O)NC2CCN(C(C)C)CC2)o1` | 27.82% |

Once more, the final 9:

Result for Cc1ccc(-n2nnc(C(N)=O)c2C)cc1 was -5.351%.
Result for CS(=O)(=O)c1ccc(NC(=O)Cn2ccnc2)cc1 was 10.91%.
Result for COCC(=O)Nc1cccc(CN2CCCC2)c1 was 21.06%.
Result for CN(C)CC(=O)N1CCCC1C(C)(C)O (centres unmarked) was 6.712%.
Result for Cc1c(Br)cccc1C(=O)N(C)CCNS(C)(=O)=O was 22.5%.
Result for CCn1nnnc1SC(C)C(=O)Nc1ccc(F)cc1 (centres unmarked) was -3.52%.
Result for NC(=O)Cc1n[nH]c(-c2cccnc2)n1 was 2.451%.
Result for NCC1Cc2ccccc21 (centres unmarked) was 72.52%.
Result for Cc1ccc(C(=O)NC2CCN(C(C)C)CC2)o1 was 27.82%.